Experiments:
[1] = system: M2-10B4 mouse marrow stromal cell line; test: Matrix mineralization in M2 cells (von Kossa staining, 45Ca incorporation assay); format: cell-based; conditions: 22R+20S, 10 days, SC-560 10 μM, ACA 25 μM, AACOCF3 20 μM, PD98059 20 μM
Method: (§1) Cells: M2-10B4 mouse marrow stromal cell line obtained from American Type Culture Collection (ATCC, Rockville, Md., U.S.A.) was derived from bone marrow stromal cells of a (C57BL/6J×C3H/HeJ) F1 mouse, and support human and murine myelopoiesis in long-term cultures (as per ATCC) and have the ability to differentiate into osteoblastic and adipocytic cells. Unless specified, these cells were cultured in RPMI 1640 containing 10% heat-inactivated FBS, and supplemented with 1 mM sodium pyruvate, 100 U/ml penicillin, and 100 […] (all from Irvine Scientific).
Von Kossa and oil red O staining—Matrix mineralization in cell monolayers was detected by silver nitrate staining as previously described. […]
^45Ca incorporation assay—Matrix mineralization in cell monolayers was quantified using the ^45Ca incorporation assay as previously described. […]
M2 cells were treated with control vehicle (C) or a combination of 22R and 20S oxysterols at increasing concentrations. After 14 days, matrix mineralization in cultures was quantified using a ^45Ca incorporation assay. […]
(A) M2 cells at confluence were pretreated for 4 hours with control vehicle (C) or 10 μM COX-1 inhibitor SC-560 (SC) in osteogenic medium as described earlier. […] After 3 days, ALP activity was measured as described earlier. […] After 3 days, ALP activity was measured as previously described. […]

osteocalcin mRNA = test: Northern blot for osteocalcin mRNA in M2 cells; format: cell-based, mouse; conditions: 22R+20S, SC-560 20 μM, 8 days, PD98059
Method: RNA isolation and Northern blot analysis—Following treatment of cells under appropriate experimental conditions, total RNA was isolated using the RNA isolation kit from Stratagene (La Jolla, Calif., U.S.A.). Total RNA ([…]) was run on a 1% agarose/formaldehyde gel and transferred to Duralon-UV membranes (Strategene, Calif., U.S.A.) and cross-linked with UV light. […] The extent of gene induction was determined by densitometry.
M2 cells at confluence were treated with control vehicle (C) or a combination of 22R and 20S oxysterols (5 μM each) in osteogenic medium. After 4 and 8 days, total RNA from duplicate samples was isolated and analyzed for osteocalcin (Osc) and 28S rRNA expression by Northern blotting as described. […]
(A) M2 cells at confluence were pretreated for 4 hours with control vehicle (C) or 10 μM COX-1 inhibitor SC-560 (SC) in osteogenic medium as described earlier. […] After 3 days, ALP activity was measured as described earlier. […] (B) M2 cells were treated as described in (A) and after 10 days matrix mineralization in cultures was quantified by a ^45Ca incorporation assay as described earlier. […] After 8 days, total RNA was isolated and analyzed for osteocalcin (Osc) and 18S rRNA expression by Northern blotting as previously described. […] After 3 days, ALP activity was measured as previously described. […]

marrow stromal cells = test: Osteogenic activity of marrow stromal cells (alkaline phosphatase, mineral formation), overall; format: cell-based, mouse; conditions: M2 cells; SC-560 at 1-20 μM; NS-398 at 20 μM
Method: Next, a combination of 22R and 20S oxysterols (RS, 2.5 μM each) were added in the presence or absence of SC as indicated. After 3 days, ALP activity was measured as described earlier. […] (B) M2 cells were treated as described in (A) and after 10 days matrix mineralization in cultures was quantified by a ^45Ca incorporation assay as described earlier. Results from a representative of three experiments are shown, reported as the mean±SD of quadruplicate determinations, normalized to protein concentration. (C) M2 cells were pretreated with 20 μM SC for 4 hours, followed by the addition of RS in the presence or absence of SC as described above. After 8 days, total RNA was isolated and analyzed for osteocalcin (Osc) and 18S rRNA expression by Northern blotting as previously described. Data from densitometric analysis of the Northern blot is shown in (D) as the average of duplicate samples, normalized to 18S rRNA. (E) M2 cells at confluence were pretreated for 2 hours with control vehicle (C), or PLA2 inhibitors ACA (25 μM) and AACOCF3 (AAC, 20 μM), in osteogenic medium. Next, a combination of 22R and 20S oxysterols (RS, 2.5 μM) was added in the presence or absence of the inhibitors as indicated. After 3 days, ALP activity was measured as previously described. […] After 10 days, matrix minerliazation in cultures was quantified using a ^45Ca incorporation assay as previously described. […]

[2] = system: M2-10B4 mouse marrow stromal cell line; test: Alkaline phosphatase (ALP) activity assay in M2 cells; format: cell-based; conditions: 22R+20S, SC-560 10 μM, ACA 25 μM, AACOCF3 20 μM, PD98059 20 μM
Method: as §1, with “Scientific). […]” for “Scientific).”
Test 1: M2 cells at confluence were treated with control vehicle (C), or 10 μM oxysterols, in an osteogenic medium consisting of RPMI 1640 to which 10% fetal bovine serum (FBS), 50 μg/ml ascorbate and 3 mM beta-glycerophosphate (βGP) were added. After 3 days of incubation, alkaline phosphatase (ALP) activity was determined in cell homogenates by a colorimetric assay. […]
M2 cells at confluence were treated in osteogenic medium with control vehicle (C) or a combination of 22R and 20S oxysterols, at the indicated concentrations. ALP activity was measured after 3 days as described above. […]
Test 2: M2 cells were grown in RPMI medium containing 10% fetal bovine serum (FBS). […] After 4 days, alkaline phosphatase activity was determined in whole cell lysates and normalized to protein. […]

## COc1ccc(-n2nc(C(F)(F)F)cc2-c2ccc(Cl)cc2)cc1 [SC-560]
[1]
  inhibition of oxysterol-induced mineralization: inhibited
Osteocalcin mRNA
  inhibition of oxysterol-induced osteocalcin gene expression: inhibited
Marrow stromal cells
  inhibition of the osteogenic effects of oxysterol combinations: significantly inhibited
[2]
  inhibition of oxysterol-induced alkaline phosphatase activity: inhibited

From patent US7897588B2, “Agents and methods for enhancing bone formation” (The Regents of the University of California, priority 2003, dated 2011)
